This note sets out measurements from paper PMC11499256, “Two-factor authentication underpins the precision of the piRNA pathway” (Nature, 2024).

Protein sequences, listed by entry. Tags and fused reporters are not part of them.
UniProt Q61142: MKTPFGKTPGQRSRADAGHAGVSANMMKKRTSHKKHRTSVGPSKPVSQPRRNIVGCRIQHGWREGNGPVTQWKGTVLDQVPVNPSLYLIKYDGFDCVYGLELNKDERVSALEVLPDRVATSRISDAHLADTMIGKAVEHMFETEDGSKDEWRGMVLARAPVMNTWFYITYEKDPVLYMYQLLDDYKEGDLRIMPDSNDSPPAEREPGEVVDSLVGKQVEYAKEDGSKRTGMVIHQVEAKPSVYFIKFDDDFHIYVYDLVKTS

These are yes or no findings as the source states them, for the method shown. Binding seen in cells or lysates may run through a third protein. Some binding calls cover weakened binding; strength is not graded here. For some assays here: Where a sequence is shown, tags or fusion partners need not be part of it.

Holding throughout (test): co-IP; HEK293T co-transfected; lysis in IP buffer (150 mM KCl, 2.5 mM MgCl2, 0.5% Triton X-100, 50 mM Tris-HCl pH 8, benzonase); anti-HA beads 1 h at 4 °C; western blot
(Immunoblotting shows a protein as a band on a membrane.)

The target in assay [1] is T1, SPOCD1 fragment 1b (amino acids 205–409), expressed in HEK cells (mouse) (UniProt B1ASB6).
T1 sequence: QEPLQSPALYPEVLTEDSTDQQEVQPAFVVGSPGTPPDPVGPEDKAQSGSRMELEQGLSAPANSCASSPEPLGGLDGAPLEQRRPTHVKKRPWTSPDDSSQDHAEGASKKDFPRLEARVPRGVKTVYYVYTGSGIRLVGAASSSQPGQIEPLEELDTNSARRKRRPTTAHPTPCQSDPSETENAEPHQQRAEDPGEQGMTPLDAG

Assay [2] has as its target T2, SPOCD1 fragment 1 (amino acids 1–409) (mouse) (UniProt B1ASB6).
T2 sequence: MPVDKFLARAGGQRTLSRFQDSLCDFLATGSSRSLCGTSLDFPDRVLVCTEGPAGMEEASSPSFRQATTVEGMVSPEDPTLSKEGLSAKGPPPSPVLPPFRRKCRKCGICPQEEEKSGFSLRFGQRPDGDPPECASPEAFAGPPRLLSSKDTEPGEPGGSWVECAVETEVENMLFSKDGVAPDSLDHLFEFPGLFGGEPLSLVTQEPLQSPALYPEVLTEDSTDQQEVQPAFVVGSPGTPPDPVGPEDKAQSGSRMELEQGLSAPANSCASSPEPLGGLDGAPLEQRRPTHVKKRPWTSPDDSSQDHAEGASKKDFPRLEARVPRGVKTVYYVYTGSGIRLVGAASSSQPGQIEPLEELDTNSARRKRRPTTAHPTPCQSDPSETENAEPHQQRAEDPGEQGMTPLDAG

Assay [3] deals with T3, SPOCD1, full length, mouse wild type, HA epitope-tagged (mouse) (UniProt B1ASB6).
T3 sequence: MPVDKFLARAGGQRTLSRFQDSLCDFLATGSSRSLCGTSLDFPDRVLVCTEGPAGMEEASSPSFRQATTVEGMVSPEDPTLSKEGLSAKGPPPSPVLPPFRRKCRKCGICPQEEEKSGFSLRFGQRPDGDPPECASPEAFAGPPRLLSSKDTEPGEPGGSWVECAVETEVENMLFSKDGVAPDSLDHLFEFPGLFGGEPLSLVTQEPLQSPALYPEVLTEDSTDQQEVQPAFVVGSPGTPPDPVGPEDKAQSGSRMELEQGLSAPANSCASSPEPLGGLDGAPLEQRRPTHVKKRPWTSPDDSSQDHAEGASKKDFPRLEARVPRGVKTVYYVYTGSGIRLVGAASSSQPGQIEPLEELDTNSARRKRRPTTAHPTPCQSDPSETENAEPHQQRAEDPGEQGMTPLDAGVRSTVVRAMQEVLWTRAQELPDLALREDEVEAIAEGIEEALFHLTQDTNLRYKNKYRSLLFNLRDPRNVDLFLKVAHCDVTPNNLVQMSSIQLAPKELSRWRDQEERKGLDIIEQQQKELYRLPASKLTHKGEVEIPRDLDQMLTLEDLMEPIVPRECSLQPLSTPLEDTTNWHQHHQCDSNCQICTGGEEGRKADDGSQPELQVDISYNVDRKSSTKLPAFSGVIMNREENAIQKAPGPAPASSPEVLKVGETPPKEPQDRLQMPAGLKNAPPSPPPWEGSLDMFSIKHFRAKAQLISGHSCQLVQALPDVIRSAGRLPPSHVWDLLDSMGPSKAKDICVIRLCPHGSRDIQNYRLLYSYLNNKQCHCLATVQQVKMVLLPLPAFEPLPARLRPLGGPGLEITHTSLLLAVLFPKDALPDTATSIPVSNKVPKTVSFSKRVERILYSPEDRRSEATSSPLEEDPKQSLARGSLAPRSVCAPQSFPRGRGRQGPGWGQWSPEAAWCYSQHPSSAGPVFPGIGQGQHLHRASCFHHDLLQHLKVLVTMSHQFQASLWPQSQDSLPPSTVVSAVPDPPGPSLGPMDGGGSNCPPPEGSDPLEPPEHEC

Assay [4] concerns the target T4, GFP fused with 20 amino acids (327–346) of mouse SPOCD1 (mouse) (UniProt B1ASB6).
T4 sequence: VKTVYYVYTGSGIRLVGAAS

The target in assay [5] is T5, SPOCD1, full length, mouse wild type, HA epitope-tagged (mouse), B1ASB6.
T5 chain: T3 sequence
The note with it: remark: other sources report otherwise.

Regarding “SPIN1 (SPINDLIN1), co-expressed in HEK cells (from UniProt Q61142 1-262)”, the binding result in assay [1], in assay [2], in assay [3] and in assay [4] was “binds” throughout.

B1: FLAG-tagged DNMT3L, Q9CWR8 1-421 (protein)
chain: MGSRETPSSCSKTLETLDLETSDSSSPDADSPLEEQWLKSSPALKEDSVDVVLEDCKEPLSPSSPPTGREMIRYEVKVNRRSIEDICLCCGTLQVYTRHPLFEGGLCAPCKDKFLESLFLYDDDGHQSYCTICCSGGTLFICESPDCTRCYCFECVDILVGPGTSERINAMACWVCFLCLPFSRSGLLQRRKRWRHQLKAFHDQEGAGPMEIYKTVSAWKRQPVRVLSLFRNIDKVLKSLGFLESGSGSGGGTLKYVEDVTNVVRRDVEKWGPFDLVYGSTQPLGSSCDRCPGWYMFQFHRILQYALPRQESQRPFFWIFMDNLLLTEDDQETTTRFLQTEAVTLQDVRGRDYQNAMRVWSNIPGLKSKHAPLTPKEEEYLQAQVRSRSKLDAPKVDLLVKNCLLPLREYFKYFSQNSLPL
Consider B1, for which the binding result in assay [5] is reported as “binds”.
